{"sequences": {"note": "Sequences of proteins named here, by UniProt entry; tags and fusion partners are left off. A change or cut given only in a name is not applied to a line headed by its entry.", "UniProt P18054": "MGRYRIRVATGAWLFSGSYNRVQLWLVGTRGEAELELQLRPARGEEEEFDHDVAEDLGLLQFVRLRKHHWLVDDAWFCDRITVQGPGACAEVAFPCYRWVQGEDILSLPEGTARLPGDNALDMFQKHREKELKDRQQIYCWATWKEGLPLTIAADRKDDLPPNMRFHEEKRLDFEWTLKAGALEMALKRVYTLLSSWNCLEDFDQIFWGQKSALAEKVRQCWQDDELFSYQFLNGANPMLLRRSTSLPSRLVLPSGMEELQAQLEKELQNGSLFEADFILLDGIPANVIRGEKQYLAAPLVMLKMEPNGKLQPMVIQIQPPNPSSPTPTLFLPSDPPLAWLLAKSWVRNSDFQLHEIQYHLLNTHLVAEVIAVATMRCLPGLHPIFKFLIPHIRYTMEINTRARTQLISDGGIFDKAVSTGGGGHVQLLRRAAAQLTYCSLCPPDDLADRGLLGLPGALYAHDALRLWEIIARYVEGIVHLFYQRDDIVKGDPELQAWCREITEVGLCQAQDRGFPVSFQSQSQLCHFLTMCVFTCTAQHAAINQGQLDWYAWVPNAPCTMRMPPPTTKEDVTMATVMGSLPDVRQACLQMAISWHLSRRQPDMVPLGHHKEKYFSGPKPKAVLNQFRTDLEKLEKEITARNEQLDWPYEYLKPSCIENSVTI"}, "source": "PubChem BioAssay AID1671190", "about": "(National Center for Advancing Translational Sciences (NCATS), 2021)", "note": "“And” between values parts separate entries of the source, which are not always exact repeats. Identical values can stand only once. Out of some 580,000 compounds screened, about 6,100 (1.1%) were called active. The inconclusive results got no clear call from the source; some entries with a clear call stand among them for comparison. Calls come from the whole dose curve; as a rule, active = well fitted inhibition curve with a large enough effect; inconclusive = small, poorly fitted or top-dose-only effect, or another doubt; inactive = no such curve, though single readings can be large or run the other way. Potencies beside an inconclusive call are fits to weak or partial responses and may not hold up. % is set by controls: 0 for no effect and ±100 for the full control effect; potency is the fitted concentration of half-maximal effect.", "data": [{"target": "Polyunsaturated fatty acid lipoxygenase ALOX12 (Homo sapiens) (UniProt P18054)", "assay": "Primary qHTS assay for inhibitors of human arachidonate 12S-lipoxygenase (ALOX12): Round 2", "settings": "purified 12hLO, xylenol orange hydroperoxide absorbance; activity change, negative = inhibition: at 108 µM (top of the series) unless noted", "in_short": "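Purified human 12hLO (150 nM final) in 25 mM Hepes, 0.01% Triton X-100, pH 7.0 was preincubated 15 min at room temperature with compound. Then 40 uM arachidonic acid was added, 30 min. Hydroperoxide was read by Fe-XO absorbance ratio 573/405 nm.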", "values": [{"molecule": "COc1ccc(C(=O)N2CCC3(CCCN(c4ccc(-c5ccccc5)cc4)C3)CC2)cc1", "Potency": "inconclusive: 25.1 µM [inhibitor, single point]"}, {"molecule": "COc1cccc(C2/C(=C(/O)c3cnn(-c4ccccc4)c3C)C(=O)C(=O)N2CCN(C)C)c1", "note": "(stereo unspecified)", "Potency": "inconclusive: 31.6 µM [inhibitor, partial curve, poor fit]"}, {"molecule": "CCOC(=O)C1CCCN(C/C=C/c2ccccc2[N+](=O)[O-])C1", "note": "(stereo unspecified)", "Potency": "inconclusive: 0.224 µM [inhibitor, full curve, poor fit]"}, {"molecule": "CN(CCC#N)C(=O)COC(=O)c1cccnc1Nc1ccccc1F", "Potency": "inactive"}, {"molecule": "COc1ccccc1-n1c(N)c(C(N)=O)sc1=S", "activity change, negative = inhibition": "inactive: -22.5%"}, {"molecule": "Cc1oc(-c2cccc(Cl)c2)nc1CN1CCC(C(=O)NC(C)c2ccccc2)CC1", "note": "(stereo unspecified)", "activity change, negative = inhibition": "inconclusive: -30.9% [inhibitor]"}, {"molecule": "CCn1c(SCC(=O)c2ccc3ccccc3c2)nnc1-c1ccco1", "Potency": "inconclusive: 44.7 µM [inhibitor, partial curve, poor fit]"}, {"molecule": "CCC(CC)NC(=O)COc1ncnc2ccccc12", "Potency": "inconclusive: 50.1 µM [inhibitor, single point]"}, {"molecule": "CNc1c(NC(=O)CC(=O)OC)c(=O)oc2ccccc12", "activity change, negative = inhibition": "inactive: 6.61%"}, {"molecule": "COc1ccc(CCN2C(=O)COc3ccccc3C2C(=O)NCc2ccccc2)cc1OC", "note": "(stereo unspecified)", "activity change, negative = inhibition": "inactive: -27.9%"}, {"molecule": "CCCC(=O)n1nc(NCc2ccccc2)nc1NCc1ccccc1", "Potency": "inconclusive: 39.8 µM [inhibitor, partial curve, poor fit]"}, {"molecule": "CCn1c(CC2C(=O)N(Cc3ccccc3)c3ccc(C)cc32)nc2ccccc2c1=O", "note": "(stereo unspecified)", "Potency": "inconclusive: 79.4 µM [inhibitor, partial curve, poor fit]"}, {"molecule": "CCC(C)[C@H]1CNCCN1CCc1cccc(F)c1", "note": "(stereo partly specified)", "Potency": "inconclusive: 8.91 µM [inhibitor, full curve, poor fit]"}, {"molecule": "COc1ccccc1-c1cnc(Nc2ccncc2)c2c1CCO2", "activity change, negative = inhibition": "inactive: 13.2% [at 176 µM]"}, {"molecule": "CCCn1c(N)c(N(CCOC)C(=O)c2cccnc2OCC)c(=O)[nH]c1=O", "Potency": "active: 15.8 µM"}, {"molecule": "Cc1cccc(CN2CCC3(CC2)Cc2ccccc2CNC3=O)n1", "activity change, negative = inhibition": "inactive: 45.8%"}, {"molecule": "CCNC(=S)Nc1ccc(S(=O)(=O)Nc2cc(C)nc(C)n2)cc1", "Potency": "inconclusive: 100 µM [inhibitor, single point]"}, {"molecule": "CCS(=O)(=O)N1Cc2ccccc2CC1C(=O)NCc1cccc(OC)c1", "note": "(stereo unspecified)", "activity change, negative = inhibition": "inactive: -12.1%"}, {"molecule": "CCOCCc1nn2c(=O)cc(COC(=O)c3ccc(NC(=O)C4CCCCC4)cc3)nc2s1", "activity change, negative = inhibition": "inactive: -22.1%"}, {"molecule": "CC(C)(C)c1ccc(C(=O)Nc2c(N3CCCC3)c3ccccc3oc2=O)cc1", "Potency": "inconclusive: 89.1 µM [inhibitor, single point]"}, {"molecule": "Cc1noc2c(Nc3ccc(N4CCOCC4)cc3)cc(-c3cccs3)nc12", "Potency": "inconclusive: 112 µM [inhibitor, single point]"}, {"molecule": "Cc1nn(-c2ccccc2)c(OC(=O)c2ccccc2Br)c1S(=O)(=O)c1ccccc1", "activity change, negative = inhibition": "inactive: -34.2%"}, {"molecule": "CC(C)c1ccc(C(=O)N2CC[C@H](N(C)C)[C@H](CCC(=O)O)C2)c(=O)[nH]1", "Potency": "inconclusive: 3.98 µM [inhibitor, full curve, poor fit]"}, {"molecule": "Cc1noc(C)c1S(=O)(=O)N1CCCC(C(=O)Nc2cccnc2)C1", "note": "(stereo unspecified)", "Potency": "inconclusive: 4.47 µM [inhibitor, full curve, poor fit]"}, {"molecule": "Cc1ccc(-c2csc(Nc3ccc(S(N)(=O)=O)cc3)n2)cc1C", "Potency": "active: 44.7 µM"}, {"molecule": "CCCc1c(C(=O)OCC)nnc2c(-c3ccc(Br)cc3)c(C)nn12", "activity change, negative = inhibition": "inactive: -5.86%"}, {"molecule": "Cc1ccc(C)c(C(=O)CSc2nnnn2C(C)C)c1", "activity change, negative = inhibition": "inactive: 0%"}, {"molecule": "O=C1CC(c2c(Cl)cccc2Cl)c2c(ccc3ccccc23)N1", "note": "(stereo unspecified)", "Potency": "inconclusive: 0.355 µM [inhibitor, full curve, poor fit]"}, {"molecule": "Fc1ccc(Nc2ncnc3sc4c(c23)CCC4)cc1", "Potency": "inconclusive: 1.58 µM [inhibitor, full curve]"}, {"molecule": "CCOC(=O)c1oc2cc(OC(=O)CC)ccc2c(=O)c1-c1nc2ccccc2s1", "Potency": "inconclusive: 35.5 µM [inhibitor, partial curve, poor fit]"}, {"molecule": "O=C(Cc1ccc(Cl)cc1)Nc1cccnc1", "Potency": "inconclusive: 39.8 µM [inhibitor, partial curve, poor fit]"}, {"molecule": "CCOC(=O)C1=C(C)N=c2s/c(=C\\c3ccc(O)c([N+](=O)[O-])c3)c(=O)n2C1c1ccccc1OC", "note": "(stereo unspecified)", "Potency": "inconclusive: 50.1 µM [inhibitor, partial curve, poor fit]"}, {"molecule": "COc1ccc(-c2noc(CN(C)Cc3ccccc3)n2)cc1", "activity change, negative = inhibition": "inactive: -2.44%"}, {"molecule": "COC(=O)CNC(=O)c1nc(-c2cccc(C(F)(F)F)c2)c2cnccn12", "activity change, negative = inhibition": "inactive: 64.9%"}, {"molecule": "Cc1cc(S(=O)(=O)Nc2ccc(C(=O)N3c4ccccc4CC3C)cc2)ccc1F", "note": "(stereo unspecified)", "Potency": "inconclusive: 44.7 µM [inhibitor, partial curve, poor fit]"}, {"molecule": "CNC(=O)CN1CCCC(N2CCN(c3cccc(C(F)(F)F)c3)CC2)C1", "note": "(stereo unspecified)", "Potency": "inconclusive: 5.62 µM [inhibitor, full curve]"}, {"molecule": "Cc1ccc(S(=O)(=O)Oc2ccccc2)cc1", "Potency": "inconclusive: 141 µM [inhibitor, single point]"}, {"molecule": "COc1ccc(C2CC(=O)N3CN(C4CCCCC4)CSC3=C2C#N)c(OC)c1", "note": "(stereo unspecified)", "Potency": "active: 39.8 µM"}, {"molecule": "O=C(NCc1nnc2n1C(C(=O)NC1CC1)CC2)c1ccc(Cl)cc1Cl", "note": "(stereo unspecified)", "activity change, negative = inhibition": "inactive: 6.19% [at 6.33 µM]"}, {"molecule": "O=C(OCc1cc(-c2ccco2)on1)c1cc2c(F)cccc2s1", "Potency": "inconclusive: 10 µM [inhibitor, full curve, poor fit]"}, {"molecule": "Cc1cccc(COC[C@H](CC(C)C)N2CCN(C(=O)c3ccc(C(F)(F)F)cc3)CCC2=O)c1", "activity change, negative = inhibition": "inactive: -4.74%"}, {"molecule": "COC(=O)c1cc2oc(C)cc2n1Cc1ccc(Br)cc1F", "Potency": "inconclusive: 56.2 µM [inhibitor, partial curve, poor fit]"}, {"molecule": "COc1ccc(S(=O)(=O)Nc2ccc3c(c2)C(=O)N([C@H](C)CO)C[C@H](C)[C@@H](CN(C)C(=O)Nc2c(C)noc2C)OCCCC[C@H](C)O3)cc1", "Potency": "inconclusive: 126 µM [inhibitor, single point]"}, {"molecule": "COC(=O)CNC(c1ccccc1Cl)c1cc(Br)ccc1NC(=O)CCN1CCOCC1", "note": "(stereo unspecified)", "Potency": "inconclusive: 44.7 µM [inhibitor, single point]"}, {"molecule": "COc1ccc(NC(=O)c2cccc(N3C(=O)c4cccc([N+](=O)[O-])c4C3=O)c2)cc1", "activity change, negative = inhibition": "inactive: -48.7%"}, {"molecule": "O=C(CC1COCCN1)N1CCC2(CCC(=O)N(CCCn3ccnc3)C2)CC1", "note": "(stereo unspecified)", "Potency": "inconclusive: 3.98 µM [inhibitor, full curve]"}, {"molecule": "CC(=C/C(=O)O)/C=C/c1ccc(Cl)o1", "Potency": "inconclusive: 39.8 µM [inhibitor, partial curve, poor fit]"}, {"molecule": "CCCc1nc2ccc(C)cn2c1Cc1ccccc1", "Potency": "inconclusive: 39.8 µM [inhibitor, partial curve, poor fit]"}, {"molecule": "CCOC(=O)CN1C(=O)C(O)=C(C(C)=O)C1c1ccc(F)cc1", "note": "(stereo unspecified)", "Potency": "inconclusive: 28.2 µM [inhibitor, partial curve, poor fit]"}, {"molecule": "CCCCc1ccc(N/C(N)=N/c2nc(C)cc(C)n2)cc1", "Potency": "inconclusive: 100 µM [inhibitor, single point] and inconclusive: 39.8 µM [inhibitor, partial curve, poor fit]"}, {"molecule": "O=C1CCCC2[C@@H]3CCC[N@+]4([O-])CCC[C@H](CN12)C34", "note": "(stereo partly specified)", "Potency": "inconclusive: 8.91 µM [inhibitor, partial curve, poor fit]"}, {"molecule": "O=C(Oc1ccc(Br)cc1C(=S)N1CCOCC1)c1ccccc1", "Potency": "inconclusive: 28.2 µM [inhibitor, partial curve, poor fit]"}, {"molecule": "N#Cc1cccc(C(c2nnnn2Cc2ccccc2)N2CCCC2)c1", "note": "(stereo unspecified)", "Potency": "inconclusive: 7.08 µM [inhibitor, full curve, poor fit]"}, {"molecule": "COCCNC(=O)[C@@H]1C[C@@H](O)CN1C1CCN(C(=O)c2ccc(C(C)C)cc2)CC1", "activity change, negative = inhibition": "inactive: 13.5%"}, {"molecule": "COc1ccc(Nc2ncc3c(n2)CCN(Cc2ccccc2C)C3)c(OC)c1", "activity change, negative = inhibition": "inactive: -0.706%"}, {"molecule": "COc1ccc(Nc2cc(-c3cccs3)nc3c(C)noc23)cc1OC", "Potency": "inconclusive: 31.6 µM [inhibitor, full curve]"}, {"molecule": "CC(C)OCCCn1c(=NC(=O)c2ccncc2)c(C#N)cc2c(=O)n3ccccc3nc21", "activity change, negative = inhibition": "inconclusive: -31.3% [inhibitor]"}, {"molecule": "CCCCC(CCC(=O)O)(C(=O)OCC)c1csc(Nc2ccc(OCC)cc2)n1", "note": "(stereo unspecified)", "Potency": "inconclusive: 35.5 µM [inhibitor, partial curve]"}, {"molecule": "O=C1CC(N2CCOCC2)C(=O)N1c1cc(Cl)cc(Cl)c1", "note": "(stereo unspecified)", "Potency": "inconclusive: 70.8 µM [inhibitor, partial curve, poor fit]"}, {"molecule": "COc1ccc(Nc2nc3ccc(OC)cc3s2)cc1", "Potency": "inconclusive: 141 µM [inhibitor, partial curve, poor fit]"}, {"molecule": "COc1cccc(-c2ccc(=O)n(CC(=O)Nc3cc(Cl)c(OC)cc3OC)n2)c1", "activity change, negative = inhibition": "inactive: 19.8%"}, {"molecule": "O=C(C1=C(O)C(=O)N(CCN2CCOCC2)C1c1ccccc1)c1cccs1", "note": "(stereo unspecified)", "Potency": "inconclusive: 22.4 µM [inhibitor, partial curve, poor fit]"}, {"molecule": "COc1ccc(NC(=S)NC2CCCCCC2)c(OC)c1", "Potency": "inconclusive: 35.5 µM [inhibitor, partial curve]"}, {"molecule": "Nc1cccc2c1C(=O)N(C(=O)/C=C/c1cccc(F)c1)C2=O", "Potency": "inconclusive: 44.7 µM [inhibitor, partial curve, poor fit]"}, {"molecule": "Cn1cccc1Cc1nnc(SCC(=O)NCCc2ccccc2)n1C", "activity change, negative = inhibition": "inactive: -24.5%"}, {"molecule": "CN(C)c1ccccc1-c1cc(NC=O)c2ncc(-c3cccc(C(F)(F)F)c3)n2c1", "Potency": "inconclusive: 31.6 µM [inhibitor, partial curve, poor fit]"}]}]}
